Laboratory results as given in PubChem BioAssay AID529 (NMMLSC, 2006).
In all, about 24,000 compounds went through this assay and about 50 (0.2%) were called active. The inconclusive results got no clear call from the source; some entries with a clear call stand among them for comparison.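 How the source made its calls: active means inhibition above 50%; inconclusive means compound itself fluorescent, judged against control cell fluorescence; inactive means the rest.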

The chains behind the UniProt entries cited, without tags or fusion partners.
UniProt P13612, whole entry, looked up: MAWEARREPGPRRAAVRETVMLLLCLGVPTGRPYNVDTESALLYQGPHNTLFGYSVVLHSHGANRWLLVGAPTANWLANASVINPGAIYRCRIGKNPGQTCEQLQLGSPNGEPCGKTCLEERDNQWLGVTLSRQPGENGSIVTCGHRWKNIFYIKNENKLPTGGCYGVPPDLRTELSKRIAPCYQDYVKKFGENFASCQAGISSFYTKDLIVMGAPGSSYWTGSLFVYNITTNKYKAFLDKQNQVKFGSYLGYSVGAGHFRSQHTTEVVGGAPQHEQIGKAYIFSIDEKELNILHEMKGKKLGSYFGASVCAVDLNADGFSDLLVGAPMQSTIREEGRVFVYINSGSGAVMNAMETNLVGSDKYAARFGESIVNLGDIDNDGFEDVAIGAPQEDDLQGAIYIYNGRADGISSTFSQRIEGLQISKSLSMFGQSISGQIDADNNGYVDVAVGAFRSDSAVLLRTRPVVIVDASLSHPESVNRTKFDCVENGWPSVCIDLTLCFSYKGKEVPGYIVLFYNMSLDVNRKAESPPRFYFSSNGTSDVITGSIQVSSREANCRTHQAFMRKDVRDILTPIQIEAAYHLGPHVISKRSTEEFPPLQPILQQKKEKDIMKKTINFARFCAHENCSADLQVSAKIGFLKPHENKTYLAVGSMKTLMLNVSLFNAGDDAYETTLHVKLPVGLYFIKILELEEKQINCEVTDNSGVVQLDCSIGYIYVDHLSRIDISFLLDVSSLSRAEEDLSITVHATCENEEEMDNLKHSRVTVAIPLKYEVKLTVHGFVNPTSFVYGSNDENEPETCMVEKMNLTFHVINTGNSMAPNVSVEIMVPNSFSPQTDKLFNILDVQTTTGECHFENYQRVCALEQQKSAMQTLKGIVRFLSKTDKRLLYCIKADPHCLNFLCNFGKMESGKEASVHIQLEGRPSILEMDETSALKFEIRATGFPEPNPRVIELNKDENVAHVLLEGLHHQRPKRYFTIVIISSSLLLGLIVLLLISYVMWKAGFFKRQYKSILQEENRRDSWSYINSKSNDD

Each compound was assayed against Integrin alpha-4 (Homo sapiens) (UniProt P13612) (assay: blockers of LDV-FITC ligand binding on VLA-4 – Jurkat cells, Mn2+ activated, primary screen (AID 529;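 on inhibition: 0% = Mn2+ stimulated cells lacking compound and 100% = ligand binding without Mn2+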)). Details: LDV-FITC binding with Mn2+, flow cytometry; stronger effect = higher value, screened at 10 µM (by protocol), 100% = Mn2+-driven binding gain fully reversed unless noted.
For `Nc1nonc1-c1nc2ccccc2n1Cc1ccc(F)cc1Cl`, the inhibition was “inconclusive”.
For `COc1ccccc1-n1c(SCC(N)=O)nnc1-c1ccccc1`, the inhibition was inactive: -3.5%.
`COc1cc2nc(NCCN3CCOCC3)n3nc(-c4ccccc4)nc3c2cc1OC` was tested, and the inhibition was “inconclusive”.
In the case of `O=c1c2cc(N3CCOCC3)ccc2[nH]c(=S)n1CCCN1CCN(c2ccccc2F)CC1`, the inhibition is reported as inactive: 12%.
With `O=C(NC1CCCC1)c1ccc(CS(=O)(=O)c2ccc(Br)cc2)o1` the inhibition was inactive: 10%.
With `CC(=O)NCCn1c(SCC(=O)NCCC2=CCCCC2)nc2ccccc2c1=O` the inhibition was “inconclusive”.
In the case of `COc1ccc2cc3cc(C(=O)NCC4COc5ccccc5O4)oc3nc2c1` (stereo not drawn), the inhibition is reported as “inconclusive”.
`CC(=O)Nc1ccccc1O` was tested, and the inhibition was inactive: -16.5%.
For `COc1ccc(NC(=O)CC(NCCc2ccccc2)C(=O)O)c(OC)c1` (stereo not drawn), the inhibition was “inconclusive”.
In the case of `CCOC(=O)C1CCN(S(=O)(=O)c2cnc[nH]2)CC1`, the inhibition is reported as “inconclusive”.
`Cc1ccc2nc(-c3ccccn3)cc(C(=O)N3CCN(c4ncccn4)CC3)c2c1` was tested, and the inhibition was “inconclusive”.
`Cc1ccsc1C1C=C(c2cccc(Br)c2)Nc2ncnn21` (stereo not drawn) was tested, and the inhibition was “inconclusive”.
For `CCOC(=O)N1CCN(c2c(NCCc3ccc(OC)c(OC)c3)c(=O)c2=O)CC1`, the inhibition was “inconclusive”.
In the case of `O=C(CSc1oc(-c2ccccc2)nc1S(=O)(=O)c1ccc(F)cc1)NCC1CCCO1` (stereo not drawn), the inhibition is reported as “inconclusive”.
In the case of `COc1ccccc1NC(=O)CCn1c(=O)sc2ccccc21`, the inhibition is reported as inactive: -20%.
For `CCOC(=O)CSc1cn2c(n1)CCC2`, the inhibition was inactive: -17%.
In the case of `COc1ccc(N2CSC3=C(C#N)C(c4cc(OC)c(OC)cc4OC)CC(=O)N3C2)c(OC)c1` (stereo not drawn), the inhibition is reported as “inconclusive”.
`Cc1ccc(-n2c(C)nc3c(cnn3-c3ccc(F)cc3)c2=O)cc1C` was tested, and the inhibition was “inconclusive”.
With `c1ccc2c(c1)nc(-c1ccncc1)n1nnnc21` the inhibition was inactive: -6%.
`O=C1CSC(c2ccccn2)N1c1ccccc1` (stereo not drawn) was tested, and the inhibition was “inconclusive”.
With `CCOC(=O)c1cnn(-c2cc(C)c3cc(C)cc(C)c3n2)c1N` the inhibition was inactive: 1.5%.
For `NC(=O)CSc1nnc(Cn2c(=O)sc3ccccc32)n1-c1ccccc1`, the inhibition was “inconclusive”.
For `COc1ccccc1NC(=O)CN1CCN(c2ccc(Cl)cc2)CC1`, the inhibition was “inconclusive”.
`CC(=O)Nc1cc2ccc(OC(C)=O)cc2oc1=O` was tested, and the inhibition was “inconclusive”.
For `CC(C)C[C@H]1C(=O)N2CCC[C@H]2[C@]2(O)O[C@](NC(=O)[C@@H]3C=C4c5cccc6[nH]c(Br)c(c56)CC4N(C)C3)(C(C)C)C(=O)N12` (stereo partly drawn), the inhibition was “inconclusive”.
In the case of `CCN1CCN(C(=O)c2cc3c(-c4ccc(Cl)cc4)nn(C)c3s2)CC1`, the inhibition is reported as “inconclusive”.
In the case of `CCOc1cc(C2CC(=O)NC3=C2C(=O)C(C(=O)OC)C(C)C3)cc(Cl)c1O` (stereo not drawn), the inhibition is reported as “inconclusive”.
`Cc1nc2c(C(=O)N3CCN(c4ccccn4)CC3)cnn2c(C)c1Cc1cccc(Cl)c1` was tested, and the inhibition was “inconclusive”.
In the case of `O=C(NCC1CCCO1)C1CCN(c2ccc(S(=O)(=O)N3CCCC3)cc2)CC1` (stereo not drawn), the inhibition is reported as “inconclusive”.
For `Cc1ccccc1Nc1nn2c(=O)c3ccccc3nc2s1`, the inhibition was “inconclusive”.
For `CCOC(=O)N1CCC(NC(=O)C2CCN(S(=O)(=O)N3CCC(C)CC3)CC2)CC1`, the inhibition was inactive: -2%.
`CC1(C)CC(=O)c2cc(OCC(=O)NCCCN3CCN(c4ccc(F)cc4)CC3)ccc2O1` was tested, and the inhibition was inactive: 0.5%.
In the case of `COc1ccc(NC(=O)CCn2cccc2)cc1`, the inhibition is reported as inactive: -7%.
In the case of `COC(=O)c1cc2sccc2n1Cc1nc(-c2ccc(OC)cc2)oc1C`, the inhibition is reported as “inconclusive”.
In the case of `COc1ccc(-n2c(Cn3c(=O)sc4ccccc43)nnc2SC)cc1`, the inhibition is reported as “inconclusive”.
In the case of `COc1cccc(-c2nc(CS(=O)CC(=O)NCc3ccccc3)c(C)o2)c1` (stereo not drawn), the inhibition is reported as “inconclusive”.
With `c1ccc(CCn2nnnc2CN2CCN(C3CCCC3)CC2)cc1` the inhibition was inactive: -4.5% [stronger effect = higher value, 100% = Mn2+-driven binding gain fully reversed, screened at 10 µM (by protocol)].
For `O=C(Nc1ccc(-n2nncc2-c2ccco2)cc1)c1cccc(F)c1`, the inhibition was “inconclusive”.
For `COc1ccc2nc(SCC(=O)Nc3ccc4c(c3)OCCO4)[nH]c2c1`, the inhibition was “inconclusive”.
For `CC(=O)NC(CCS(C)(=O)=O)C(=O)Nc1ccc(C)c(F)c1` (stereo not drawn), the inhibition was “inconclusive”.
`O=C(Cc1ccc(-n2cccc2)cc1)NC1CCCCC1` was tested, and the inhibition was “inconclusive”.
In the case of `CC1CCCN(C(C(=O)Nc2ccc3c(c2)OCCO3)c2ccccc2)C1` (stereo not drawn), the inhibition is reported as inactive: 0%.
With `Cc1cc(Nc2ccc(C(C)C)cc2)n2ncnc2n1` the inhibition was “inconclusive”.
With `Cc1ccc(C(c2sc3nc(C)nn3c2O)N2CCN(c3ccccc3)CC2)cc1` (stereo not drawn) the inhibition was “inconclusive”.
For `O=C(NCc1cccnc1)c1ccc2c(c1)OCO2`, the inhibition was “inconclusive”.
In the case of `CCN(CC)C(=O)c1sc2nc(-c3ccc(OC)cc3)cn2c1C`, the inhibition is reported as “inconclusive”.
With `O=C(OCCN=C1NS(=O)(=O)c2ccccc21)C1CC(=O)N(c2ccc(Cl)cc2)C1` (stereo not drawn) the inhibition was inactive: -14.5%.
With `Cc1cc(NC(=O)c2noc3c2CCc2ccccc2-3)no1` the inhibition was “inconclusive”.
In the case of `Cc1ccccc1CSc1nc2n(n1)C(c1cccs1)C1=C(CCCC1=O)N2` (stereo not drawn), the inhibition is reported as “inconclusive”.
In the case of `N#CC1=C(N)N(c2ccccc2C#N)C2=C(C(=O)CCC2)C1c1ccsc1` (stereo not drawn), the inhibition is reported as “inconclusive”.
For `Cc1ccc(-c2cn3nc(C)c(C)nc3n2)cc1`, the inhibition was “inconclusive”.
For `COc1ccc(-c2noc(CCC(=O)Nc3ccc4c(c3)OCCO4)n2)cc1`, the inhibition was “inconclusive”.
`Cc1ccc(C)c2[nH]c(=O)c(CCNC(=O)c3ccc4c(c3)OCO4)cc12` was tested, and the inhibition was “inconclusive”.
With `N#CCC(=O)Nc1ncn(Cc2ccccc2Cl)n1` the inhibition was inactive: -2%.
For `CC1C(=O)CC(c2ccccc2)N(C)C1c1ccccc1` (stereo not drawn), the inhibition was “inconclusive”.
With `COc1ccc(NC(=O)Cn2nnc(C(=O)NCc3cccc(OC)c3)c2N)cc1` the inhibition was “inconclusive”.
With `COc1ccc2cc3cc(C(=O)NCCN4CCc5ccccc5C4)oc3nc2c1` the inhibition was “inconclusive”.
`COc1cc(C(=O)NCCC(=O)NC2CCCCCCC2)cc(OC)c1OC` was tested, and the inhibition was “inconclusive”.
In the case of `Cc1ccc(-c2noc(CCC(=O)Nc3cccc(C#N)c3)n2)cc1`, the inhibition is reported as “inconclusive”.
With `O=C(CCC1CCCC1)c1c(O)c2ccccc2oc1=O` the inhibition was “inconclusive”.
With `CCOc1cccc(NC(=O)C2CC(=O)N(C)C(=Nc3cccc(F)c3)S2)c1` (stereo not drawn) the inhibition was inactive: -1%.
For `Cn1cccc1Cc1nnc(SCC(=O)NCc2ccccc2)n1-c1ccc(F)cc1`, the inhibition was “inconclusive”.
With `CC(C)n1c(=NC(=O)c2ccco2)c(C#N)cc2c(=O)n3ccccc3cc21` the inhibition was inactive: 7%.
For `O=C(O)CCCC(=O)N1CCN(c2nc(-c3ccccc3)c3ccccc3n2)CC1`, the inhibition was “inconclusive”.
With `Cc1cc(C)nc(NS(=O)(=O)c2ccc(Br)s2)c1` the inhibition was “inconclusive”.
In the case of `CC(C)Oc1cccc(-c2cc(C(=O)N3CCN(S(C)(=O)=O)CC3)c3ccccc3n2)c1`, the inhibition is reported as “inconclusive”.
For `COc1ccc(CSCCN)cc1Cl`, the inhibition was “inconclusive”.
`CC(C)(C)c1ccc(C(=O)Nc2cnccn2)cc1` was tested, and the inhibition was inactive: -1%.
`COc1ccccc1NC(=O)c1ccc(NC(=O)CSc2nnnn2C)cc1` was tested, and the inhibition was inactive: -5%.
With `COc1ccc(N2CCN(C(CNC(=O)C3CCCCC3)c3cccnc3)CC2)cc1` (stereo not drawn) the inhibition was “inconclusive”.
With `CCc1nc2sc3ccccc3c(=O)c2c(=O)n1Cc1ccco1` the inhibition was “inconclusive”.
For `CCOc1ccc(CC(=O)N2CCN(c3ccc(N4CCOCC4)nn3)CC2)cc1OCC`, the inhibition was inactive: -3%.
`CCn1c(SCC(=O)Nc2cc(C)on2)nc2c(c1=O)SC(C)C2` (stereo not drawn) was tested, and the inhibition was “inconclusive”.
With `Cc1ccc(NC(=O)C2C3C=CC4(CN(Cc5cccnc5)C(=O)C24)O3)cc1F` (stereo not drawn) the inhibition was inactive: 9%.
`COc1ccc(-c2cnnn2-c2ccc(NC(=O)c3ccco3)cc2)cc1OC` was tested, and the inhibition was “inconclusive”.
For `N[C@@H](Cc1ccc(O)c(I)c1)C(=O)O`, the inhibition was inactive: -8.5%.
`Cc1ccc(-c2nn3c(C)nnc3s2)cc1NC(=O)COc1ccc(Cl)cc1` was tested, and the inhibition was “inconclusive”.
`CCc1ccccc1NS(=O)(=O)c1ccc2[nH]cc(C(=O)NCC3CCCO3)c(=O)c2c1` (stereo not drawn) was tested, and the inhibition was “inconclusive”.
For `CCOC(=O)N1CCC(Nc2c(-c3ccc(C)c(C)c3)c(=O)c2=O)CC1`, the inhibition was “inconclusive”.
For `Cc1ccccc1N1CC(c2nc3ccccc3[nH]2)CC1=O` (stereo not drawn), the inhibition was “inconclusive”.
`C=CCn1c(SCC(=O)Nc2ccc3c(c2)CCC3)nnc1-c1cccs1` was tested, and the inhibition was “inconclusive”.
In the case of `CCOC(=O)C1=C(C)NC(C)=C(C(=O)OCC)C1C(=O)OC1CCOC1=O` (stereo not drawn), the inhibition is reported as “inconclusive”.
With `CN(CC(=O)Nc1sccc1C#N)C1CCCCC1` the inhibition was “inconclusive”.
With `Cn1c(=O)oc2cc(S(=O)(=O)Nc3cccc(F)c3)ccc21` the inhibition was “inconclusive”.
For `Nc1nc(N2CCN(C/C=C/c3ccccc3)CC2)nc2ccccc12`, the inhibition was inactive: 1%.
`CNC(=O)Nc1cc(C(C)(C)C)no1` was tested, and the inhibition was “inconclusive”.
In the case of `OC(Cc1nc2ccccc2[nH]1)c1ccccc1Cl` (stereo not drawn), the inhibition is reported as “inconclusive”.
Work on `COc1ccc(NC(=O)c2nc[nH]c2C(=O)Nc2ccccc2C)cc1` yielded an inhibition of 65%.
For `COc1ccc(OC)c(C2C(C(N)=O)=C(C)Nc3nc(CCCO)nn32)c1` (stereo not drawn), the inhibition was inactive: -18%.
In the case of `COc1cc2[nH]c(=O)n(CCCCCC(=O)NCCc3c[nH]c4ccccc34)c(=O)c2cc1OC`, the inhibition is reported as inactive: 18%.
`O=C(CNS(=O)(=O)c1cccs1)N1CCc2ccccc2C1` was tested, and the inhibition was inactive: -21%.
In the case of `Cc1cccc(CCNS(=O)(=O)c2ccc3c(c2)oc(=O)n3C)c1`, the inhibition is reported as “inconclusive”.
`CCc1ccc(NC(=O)NCCN2CCc3ccccc3C2)cc1` was tested, and the inhibition was inactive: 12%.
In the case of `C=CCn1c(N)c(C(=O)NCCC2=CCCCC2)sc1=S`, the inhibition is reported as inactive: 38%.
`COc1ccc(N2C(=O)C3CCCN3C2c2cccc(C)c2)cc1Cl` (stereo not drawn) was tested, and the inhibition was “inconclusive”.
With `COc1ccc(C(=O)N2CCN(C3CCCCC3)CC2)c(OC)c1` the inhibition was inactive: -19.5%.
With `COc1ccccc1NC(=O)N(Cc1ccccc1)C1=NCC(C)S1` (stereo not drawn) the inhibition was “inconclusive”.
For `Cc1cccc(-n2nc3c(c2NC(=O)c2ccco2)CSC3)c1C`, the inhibition was inactive: 2%.
